Experimental data published in article PMC11870076.
These are yes or no findings as the source states them, for the method shown. Some binding calls cover weakened binding; strength is not graded here.

Biological target: chicken connexin 26 (GgCx26) gap junction channel (chicken (Gallus gallus)) (UniProt E1C2J9)
Assay: cryo-EM structure; GgCx26 in 0.03% DDM, 90 mmHg PCO2 aCSF buffer gassed with 15% CO2 to pH ~7.4, 3.4 mg/ml; reconstructions with D6 and C6 symmetry; both purified

- binding: binds
Substance: chicken connexin 26 (GgCx26) gap junction channel (from UniProt E1C2J9 1-225)
